Measured values: article PMC12318970
For at least one entry, the source does not settle the construct or the ends of the probe. Where cells or extracts were used, other partners may take part. At least one verdict rests on a figure or table, not on a statement of the authors.

Protein sequences, listed by entry. Tags and fused reporters are not part of them. Residues count along the entry.
UniProt P18627, 23-525: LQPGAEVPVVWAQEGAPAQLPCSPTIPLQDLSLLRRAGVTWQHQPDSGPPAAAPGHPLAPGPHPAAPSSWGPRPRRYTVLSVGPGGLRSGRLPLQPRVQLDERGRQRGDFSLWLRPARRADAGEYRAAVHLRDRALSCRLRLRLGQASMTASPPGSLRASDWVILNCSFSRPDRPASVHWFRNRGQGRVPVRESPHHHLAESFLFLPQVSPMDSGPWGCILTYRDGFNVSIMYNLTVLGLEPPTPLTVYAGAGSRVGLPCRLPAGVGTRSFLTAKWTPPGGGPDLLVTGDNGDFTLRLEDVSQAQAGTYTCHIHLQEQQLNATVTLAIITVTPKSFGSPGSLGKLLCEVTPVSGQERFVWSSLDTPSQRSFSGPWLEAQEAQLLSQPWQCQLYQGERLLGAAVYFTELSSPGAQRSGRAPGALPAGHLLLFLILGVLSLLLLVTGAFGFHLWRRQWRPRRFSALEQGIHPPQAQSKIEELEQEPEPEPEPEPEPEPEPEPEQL

What was measured:
HER2 on HepG2 cells [1] = target: HER2 on HepG2 cells (UniProt P04626); assay: flow cytometry; conditions: 500 nM aptamer, HepG2 cells, reduced by anti-HER2 antibody, PBS, 4x10^5 cells in 500 uL, 30 min (flow cytometry, temperature not stated), microscopy at 37 C, protein on the cell surface, label: Cy5, single-stranded DNA
HER2 on A549 cells [2] = target: HER2 on A549 cells (UniProt P04626); assay: flow cytometry; conditions: 500 nM aptamer, A549 cells, reduced by anti-HER2 antibody, PBS, 4x10^5 cells in 500 uL, 30 min (flow cytometry, temperature not stated), microscopy at 37 C, protein on the cell surface, label: Cy5, single-stranded DNA
LAG3 on Jurkat cells [3] = target: LAG3 on Jurkat cells (UniProt P18627); assay: flow cytometry; conditions: 500 nM aptamer, Jurkat cells, reduced by anti-LAG3 antibody, PBS, 4x10^5 cells in 500 uL, 30 min (flow cytometry, temperature not stated), microscopy at 37 C, protein on the cell surface, label: Cy3, single-stranded DNA
LAG3 on Jurkat cells [4] = target: LAG3 on Jurkat cells (UniProt P18627); assay: competition with a labelled probe; conditions: competes with 500 nM Cy3-LAG3-apt on Jurkat cells (flow cytometry), Cy7-HLB-apt signal by microscopy, PBS, 500 nM aptamer, 4x10^5 cells in 500 uL, 30 min (flow cytometry, temperature not stated), microscopy at 37 C, protein on the cell surface, label: Cy7 (microscopy), unlabelled competitor, single-stranded DNA
HER2 on HepG2 cells [5] = target: HER2 on HepG2 cells (UniProt P04626); assay: competition with a labelled probe; conditions: competes with 500 nM Cy5-HER2-apt on HepG2 cells (flow cytometry), Cy7-HLB-apt signal by microscopy, PBS, 500 nM aptamer, 4x10^5 cells in 500 uL, 30 min (flow cytometry, temperature not stated), microscopy at 37 C, protein on the cell surface, label: Cy7 (microscopy), unlabelled competitor, single-stranded DNA
HER2 on A549 cells [6] = target: HER2 on A549 cells (UniProt P04626); assay: competition with a labelled probe; conditions: competes with 500 nM Cy5-HER2-apt on A549 cells (flow cytometry), Cy7-HLB-apt signal by microscopy, PBS, 500 nM aptamer, 4x10^5 cells in 500 uL, 30 min (flow cytometry, temperature not stated), microscopy at 37 C, protein on the cell surface, label: Cy7 (microscopy), unlabelled competitor, single-stranded DNA

Sequence: AGCCGCGAGGGGAGGGATAGGGTAGGGCGCGGCT [HER2-apt (2#)]
- binding result (HER2 on HepG2 cells [1]): binds
- binding result (HER2 on A549 cells [2]): binds

Sequence: GGGAGAGAGATATAAGGGCCTCCTGATACCCGCTGCTATCTGGACCGATCCCATTACCAAATTCTCTCCC [LAG3-apt (1#)]
- binding result (LAG3 on Jurkat cells [3]): binds

Sequence: GGGAGAGAGATATAAGGGCCTCCTGATACCCGCTGCTATCTGGACCGATCCCATTACCAAATTCTCTCCCTTTTTTTTTTAGCCGCGAGGGGAGGGATAGGGTAGGGCGCGGCT [HLB-apt (LAG3-apt 1# - T10 - HER2-apt 2#)]
- binding result (LAG3 on Jurkat cells [4]): binds
- binding result (HER2 on HepG2 cells [5]): binds
- binding result (HER2 on A549 cells [6]): binds
